In patent US20210047410A1:
Results are given in words; binding and its absence hold for the method and conditions named. Some entries that bind do so weakly or less than the wild type.

Assays:
[1] = target: WT (M1) hCTLA-4-Fc (human); test: ELISA; hCTLA-4-Fc protein coated at 1 µg/ml, streptavidin-HRP
[2] = target: WT (M1) hCTLA-4-Fc (human); test: ELISA: Fc proteins coated at 1 µg/ml, biotinylated hB7-1-Fc varied, streptavidin-HRP

human B7-1-Fc (from UniProt P33681 35-242) (Fc fusion)
binding [1]: binds
binding [2]: binds
